Data: publication PMC7366909
These are yes or no findings as the source states them, for the method shown. Binding seen in cells or lysates may run through a third protein. Here binding means that the protein was enriched with, or labelled near, the bait; the list need not be complete.

Chains of the proteins cited; added tags and fusions are not shown. Lines headed by an entry give the natural chain unless they say otherwise; changes in a name come on top. A line that says so, or that is headed by a name, gives the form on record, which may keep a tag or linker.
CD44 (erythroid isoform CD44H) (human (endogenous in red cells)) (P16070, form named): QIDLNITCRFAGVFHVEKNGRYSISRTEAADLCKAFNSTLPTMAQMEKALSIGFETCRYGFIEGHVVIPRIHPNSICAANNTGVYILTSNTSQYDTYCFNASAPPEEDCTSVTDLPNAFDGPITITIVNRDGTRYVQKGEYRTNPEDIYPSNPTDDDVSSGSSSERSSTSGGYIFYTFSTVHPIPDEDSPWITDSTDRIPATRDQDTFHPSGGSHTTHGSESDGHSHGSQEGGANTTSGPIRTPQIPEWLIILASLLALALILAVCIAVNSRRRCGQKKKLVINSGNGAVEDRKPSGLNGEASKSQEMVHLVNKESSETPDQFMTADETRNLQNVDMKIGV

Biological target: CD44 (erythroid isoform CD44H) (human (endogenous in red cells)) (UniProt P16070)
Assay: affinity purification with mass spectrometry; immune precipitates prepared from normal red cells with anti-CD44 (BRIC222) and an IgG1 isotype control; proteomic analysis

B1: epithelial membrane protein 3 (EMP3) (protein, UniProt P54852 1-163)
chain: MSLLLLVVSALHILILILLFVATLDKSWWTLPGKESLNLWYDCTWNNDTKTWACSNVSENGWLKAVQVLMVLSLILCCLSFILFMFQLYTMRRGGLFYATGLCQLCTSVAVFTGALIYAIHAEEILEKHPRGGSFGYCFALAWVAFPLALVSGIIYIHLRKRE
binding: binds
